These results are taken from PubChem BioAssay AID2685 (National Center for Advancing Translational Sciences (NCATS), 2010).

The test in a line: qHTS Assay for Lipid Storage Modulators in Drosophila S3 Cells.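 On cell number change: cells counted by Cell Tracker Red CMTPX staining in the red channel.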 The following applies: BODIPY lipid droplet fluorescence, 18-24 h; for cell number change: measured here: cell count max response, cells fed with added oleic acid. In a few lines:
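Laser-scanning cytometry quantifies lipid droplet accumulation (500–530 nm total intensity; droplet/cell object ratio) in oleic acid-fed (400 uM added) Drosophila S3 cells treated with a concentration series. 20 uM Triacsin C defined 100% inhibition.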
Background: Quantitative high-throughput screening tests each substance at several concentrations.

Where [1] appears, read: measured here: lipid fluorescence (Fed channel) AC50, cells fed with added oleic acid.
Setting [2] is: measured here: cell number channel AC50, cells fed with added oleic acid.

This is one part of the list. These are further read-outs of the screen, such as a control signal, another cell line or another target. No call is given for them. The list favours compounds with an active or inconclusive main result. Potencies come from curve fits of mixed quality, noted in brackets.

As for `CCN1CCN(CNC(=O)c2cnccn2)CC1`, the cell number change is 6.02%.

One may read the AC50 as the concentration giving half of the maximal activity seen. Lower therefore signals greater potency. As to `CCc1ccc(NC(=O)C2=CC(c3cccs3)=NS(=O)(=O)N2C)cc1`, the AC50 under setting [1] is 25.9 µM [falling, single point].

Regarding `CC(NC(=O)Nc1ccc([N+](=O)[O-])cc1)C(c1ccccc1)N1CCOCC1` (centres undefined), the cell number change was -5.62%.

With `Cc1c(-n2c(SCC(C)C)nc3ccccc3c2=O)c(=O)n(-c2ccccc2)n1C`, the cell number change was -21.9%. Also, the AC50 under setting [1] was 5.17 µM [falling, partial curve, poor fit].

In the case of `O=C(O)c1cc(N/C(=N\S(=O)(=O)c2ccc(F)cc2)c2ccccc2)ccc1O`, the cell number change was -3.21%.

Consider `COc1ccc(CN(C)CC(O)COc2ccc(-c3ccccc3)cc2)cc1OC` (centres undefined), for which the cell number change came out at 39.7%. Besides, under setting [2], the AC50 is 25.9 µM [rising, partial curve].

With `Cc1ccc(-c2[nH]nc3c2C(C)C(C#N)=C(N)O3)cc1` (centres undefined), the cell number change was 25.8%. Also, under setting [1], the half-maximal activity concentration (AC50) is 14.6 µM [rising, partial curve].

Turning to `O=C(N/N=C/c1c(Nc2cccc(C(F)(F)F)c2)nc2ccccn2c1=O)c1ccccc1`, the cell number change amounted to 3.74%. For the same compound, the AC50 under setting [1] is 0.0731 µM [rising, full curve, poor fit].

On to `O=C(NNC(=O)c1ccccc1-n1cccc1)c1ccc(Cl)nc1`, for which the cell number change was 15.4%. Besides, the half-maximal activity concentration (AC50) under setting [2] is 0.517 µM [falling, full curve]. Under setting [1], the AC50 is 0.82 µM [falling, full curve].

On to `CC(=O)c1cccc(NC(=O)c2onc(C)c2Cl)c1`, for which the cell number change was -1.84%. Moreover, the AC50 under setting [1] is 29.1 µM [rising, single point].

For the compound `CCOC(=O)N1CCC(N2CCN(S(=O)(=O)c3ccc4ccccc4c3)CC2)CC1`, the cell number change is 84.9%. Further, the AC50 under setting [2] was 20.6 µM [rising, partial curve].

As to `CC(C)Nc1nc(NC(C)C)nc(N(C)C#N)n1`, the cell number change is 11.9%. Further, under setting [2], the half-maximal activity concentration (AC50) is 6.51 µM [rising, single point]. For the same compound, under setting [1], the AC50 was 29.1 µM [rising, single point].

For `CC(C)CNC(=S)N(CCCO)Cc1cc2cc3c(cc2[nH]c1=O)OCCO3`, the cell number change is -3.65%.

As for `O=C(O)C1Cc2ccccc2CN1C(=O)c1ccccc1` (centres undefined), the cell number change was -32.1%. Further, under setting [2], the AC50 was 5.8 µM [falling, full curve, poor fit]. Besides, the AC50 under setting [1] was 3.26 µM [falling, single point].

With `O=C(Cc1ccc(Br)cc1)N1CCOCC1`, the cell number change was 36.5%. Under setting [2], the AC50 was 23.1 µM [rising, single point]. Further, under setting [1], the AC50 was 29.1 µM [rising, single point].

In the case of `COc1cccc(CN2CC(C(=O)NCc3cccc(N4CCCC4)c3)CCC2=O)c1` (centres undefined), the cell number change was -2.99%.

`COc1ccc(S(=O)(=O)NCCC(=O)OCC(=O)c2ccc[nH]2)cc1[N+](=O)[O-]`: the cell number change was -5.46%. Moreover, under setting [2], the AC50 was 0.082 µM [falling, full curve, poor fit]. Moreover, under setting [1], the AC50 is 29.1 µM [falling, single point].

As for `Cc1ccc(OC(=O)CCC(=O)NC(C)c2ccccc2)cc1` (centres undefined), the cell number change came to 6.18%. Also, the AC50 under setting [1] is 29.1 µM [rising, single point].

Take `CCCN1CCN(C(=O)CCCNC(=O)c2ccc(Cl)cc2)CC1`: under setting [1], the AC50 is 29.1 µM [falling, single point].

As to `CCN(CC)C(=S)Nc1ccc(Cl)c(Cl)c1`, the cell number change is -33.3%. Further, the AC50 under setting [2] is 6.51 µM [falling, single point].

As to `C#Cc1ccc(CN2CCC(Oc3cc(C(=O)NC4CC4)ccc3OC)CC2)cc1`, the cell number change worked out at 16.3%. Moreover, the concentration at half-maximal activity (AC50) under setting [1] was 29.1 µM [rising, single point].

On to `Cc1[nH]nc2c1C(c1ccsc1)C1=C(CC(C)(C)CC1=O)N2` (centres undefined), for which the cell number change is -7.92%. The AC50 under setting [2] is 0.00461 µM [falling, full curve, poor fit]. The AC50 under setting [1] is 0.58 µM [falling, partial curve, poor fit].

For the compound `COc1ccccc1NS(=O)(=O)c1ccc(C)c(C(=O)NC2CCN(Cc3ccccc3)CC2)c1`, the cell number change was 47.1%. Moreover, under setting [2], the AC50 is 2.31 µM [rising, full curve, poor fit].

Regarding `CCOc1ccc(C(=O)NCCNC(=O)c2ccc(OCC)cc2)cc1`, the cell number change amounted to 0.676%.

On to `COc1ccc(NC(=O)C2=CC(c3ccc(OC)cc3)=NS(=O)(=O)N2C)cc1`, for which the cell number change is -3.75%. Besides, the AC50 under setting [1] was 16.4 µM [falling, single point].

Turning to `Cc1cccc2nc(=S)n(C(=O)c3ccco3)n12`, the cell number change was 30.6%. In addition, under setting [2], the AC50 is 6.51 µM [rising, partial curve].

As to `Cn1c(CNC(=O)c2ccc(Cl)c(Cl)c2)nnc1SCC(=O)Nc1sc2c(c1C#N)CCCC2`, the cell number change is 62.1%. Further, the AC50 under setting [2] was 2.59 µM [rising, full curve]. Under setting [1], the AC50 was 20.6 µM [rising, partial curve].

Take `CCCc1nc(NCCCOCC)c2nnn(Cc3ccccc3)c2n1`: the cell number change was found to be 16.1%. In addition, the AC50 under setting [1] is 2.91 µM [rising, single point].

Consider `C#CCOCCOCCOCCNc1nc(N2CCN(C(=O)[C@H](C(C)C)n3cc(CCO)nn3)CC2)nc(N2CCN(C(=O)[C@H](C(C)C)n3cc(CCO)nn3)CC2)n1`, for which the cell number change was 5.38%. Further, the AC50 under setting [1] was 0.651 µM [falling, full curve, poor fit].

On to `O=C(CSc1cn(CCNC(=O)c2c(F)cccc2F)c2ccccc12)NCC1CCCO1` (centres undefined), for which the cell number change is -19.8%. Besides, the AC50 under setting [2] was 3.66 µM [falling, full curve, poor fit]. In addition, the AC50 under setting [1] was 6.51 µM [falling, single point].

Regarding `CC(C)CCn1c(Oc2ccc(Cl)cc2)nc2c1c(=O)n(C)c(=O)n2C`, the cell number change amounted to 74.5%. The half-maximal activity concentration (AC50) under setting [2] is 29.1 µM [rising, single point].

`CC(=O)Nc1ccc(S(=O)(=O)NCCC(=O)OCC(=O)c2cccc(Br)c2)cc1`: the cell number change was -25%. Also, the AC50 under setting [2] was 4.11 µM [falling, single point]. The AC50 under setting [1] was 18.4 µM [rising, single point].

As for `CCOC(=O)N1CCN(C(=O)CN(c2ccc(C)cc2)S(=O)(=O)c2c(C)noc2C)CC1`, under setting [2], the AC50 was 4.61 µM [rising, single point].

For `Cc1ccc(C(=O)N2CCN(C34CC5CC(CC(C5)C3)C4)CC2)o1`, the cell number change was -10.8%. The half-maximal activity concentration (AC50) under setting [1] was 29.1 µM [rising, single point].

In the case of `Cc1ccc(C23CC4CC(CC(NC(=O)NCCN(C)C)(C4)C2)C3)cc1`, the cell number change is -18.1%. Moreover, the AC50 under setting [2] was 1.16 µM [falling, full curve, poor fit]. The AC50 under setting [1] was 23.1 µM [falling, partial curve].

On to `CCOc1ccc(N2CC(C(=O)NCCCc3ccccc3)CC2=O)cc1` (centres undefined), for which the cell number change was -0.402%. Under setting [1], the AC50 is 0.461 µM [rising, full curve, poor fit].

Turning to `Cc1cccc(-c2nc(CS(=O)CC(=O)NCCc3ccccc3)c(C)o2)c1` (centres undefined), the cell number change turned out to be 50%. Moreover, the AC50 under setting [1] was 29.1 µM [rising, single point].

As to `O=C(N1CCOCC1)N1c2ccccc2CC(N2CCOCC2)c2ccccc21` (centres undefined), the cell number change was -37.8%. The AC50 under setting [2] was 1.64 µM [falling, full curve]. Under setting [1], the AC50 was 0.00461 µM [falling, full curve, poor fit].

As for `Cc1cc(C)c(C#N)c(SCC(=O)Nc2ccc(S(=O)(=O)Nc3onc(C)c3C)cc2)n1`, the cell number change worked out at 10.5%. Under setting [1], the half-maximal activity concentration (AC50) was 16.4 µM [rising, single point].

On to `c1ccc(CCc2cc3ccccc3[nH]2)cc1`, for which the cell number change was -54.4%. Further, the AC50 under setting [2] was 5.17 µM [falling, single point]. For the same compound, the AC50 under setting [1] is 0.00517 µM [rising, full curve, poor fit].

With `CC[n+]1c(/C=C2\C=C(C)CC(C)C2)sc2ccccc21` (centres undefined), the cell number change came to 4%.

Consider `CNc1ccc(/C=C/C(=O)c2cccc3ccccc23)cc1[N+](=O)[O-]`, for which the cell number change was -29.6%. For the same compound, under setting [1], the AC50 is 6.51 µM [falling, partial curve].

Regarding `O=C(CN(C(=O)CCC(=O)Nc1nccs1)c1ccccc1F)NCC1CCCO1` (centres undefined), the cell number change was -88.6%. Moreover, under setting [1], the AC50 was 11.6 µM [falling, partial curve].

Regarding `COc1ccc(NC(=O)NC2CCCc3ccccc32)cc1OC` (centres undefined), the cell number change was 33%. Further, the AC50 under setting [2] is 1.64 µM [rising, full curve, poor fit].

Regarding `COc1ccc(C(=O)Nc2nc(C)c(C(=O)N(C)C)s2)cc1OC`, the cell number change was 77.3%.

In the case of `CCCCNC(=S)N(CCO)Cc1cc2cc3c(cc2[nH]c1=O)OCCO3`, the cell number change came to 5.07%.

`CCOC(=O)c1cc2sccc2n1CC(=O)Nc1ccc2c(c1)OCCO2`: the cell number change turned out to be 69.3%. Also, the AC50 under setting [2] was 16.4 µM [rising, partial curve].

With `O=C1c2ccccc2C(=O)N1CC(O)COc1ccccc1Cl` (centres undefined), the cell number change is 36.1%.

For the compound `CCC(C)NC(=O)c1ccc2c(c1)N(Cc1ccccc1)C(=O)CS2` (centres undefined), the cell number change is -24.9%.

Consider `CCN(CC)C(=O)C(C)N(C#N)c1nc(SC)nc(N(C)C)n1` (centres undefined), for which the concentration at half-maximal activity (AC50) under setting [1] is 0.82 µM [rising, single point].

For the compound `O=C(O)/C(=C\c1cccs1)Sc1nnc(-c2ccc(F)cc2)o1`, the cell number change was 32.5%. Besides, the AC50 under setting [1] is 16.4 µM [rising, single point].

Take `COc1c(C)cc(C(=O)C2CCCN(C(=O)Cn3ccc(C)n3)C2)cc1C` (centres undefined): the AC50 under setting [1] is 0.58 µM [rising, single point].

On to `O=C(O)c1cccc(NS(=O)(=O)c2ccc3c(c2)OCCCO3)c1`, for which the cell number change was -18.7%. Besides, under setting [1], the AC50 is 18.4 µM [falling, single point].

With `CC(C)c1ccc(NC(=O)Cn2ncc3ccccc32)cc1`, the AC50 reads like this: under setting [2], 0.58 µM [rising, single point]; under setting [1], 29.1 µM [rising, single point].

Take `Cc1ccc(Nc2nc(CSc3nnc(-c4cccnc4)n3-c3ccccc3F)cs2)cc1`: the cell number change came to 0.115%.

As for `CCC(=O)Nc1cccc(NC(=O)c2cc3ccccc3o2)c1`, the AC50 under setting [2] was 0.366 µM [rising, partial curve] and the AC50 under setting [1] was 0.116 µM [rising, single point].

Regarding `Cc1cc(S(=O)(=O)NCCN(C)C)c(C)s1`, the cell number change was 6.79%. The AC50 under setting [1] was 0.00461 µM [rising, full curve, poor fit].

As for `CCOc1ccc(NC(=O)CSc2nnnn2C2CC2)cc1S(=O)(=O)N1CCCC1`, the cell number change was -9.15%. Besides, the AC50 under setting [1] was 0.58 µM [falling, single point].

Consider `Cc1ccc(N(CC(O)CN2CCCCC2)S(=O)(=O)c2ccccc2[N+](=O)[O-])cc1` (centres undefined), for which the cell number change came to 5.53%.

For the compound `COC(=O)Cn1c(=O)c2c(nc3n2CC(C)CN3CCc2ccccc2)n(C)c1=O` (centres undefined), the cell number change is -13.9%. Further, under setting [1], the AC50 was 6.51 µM [falling, partial curve, poor fit].
